# No constants are given. Whether binding was seen depends on the method and setting. In cells and extracts the contact can be indirect. Some entries that bind do so weakly or less than the wild type. Sequences can lack the tags named with a protein.
# Chains of the proteins cited; added tags and fusions are not shown.
# UniProt P28340: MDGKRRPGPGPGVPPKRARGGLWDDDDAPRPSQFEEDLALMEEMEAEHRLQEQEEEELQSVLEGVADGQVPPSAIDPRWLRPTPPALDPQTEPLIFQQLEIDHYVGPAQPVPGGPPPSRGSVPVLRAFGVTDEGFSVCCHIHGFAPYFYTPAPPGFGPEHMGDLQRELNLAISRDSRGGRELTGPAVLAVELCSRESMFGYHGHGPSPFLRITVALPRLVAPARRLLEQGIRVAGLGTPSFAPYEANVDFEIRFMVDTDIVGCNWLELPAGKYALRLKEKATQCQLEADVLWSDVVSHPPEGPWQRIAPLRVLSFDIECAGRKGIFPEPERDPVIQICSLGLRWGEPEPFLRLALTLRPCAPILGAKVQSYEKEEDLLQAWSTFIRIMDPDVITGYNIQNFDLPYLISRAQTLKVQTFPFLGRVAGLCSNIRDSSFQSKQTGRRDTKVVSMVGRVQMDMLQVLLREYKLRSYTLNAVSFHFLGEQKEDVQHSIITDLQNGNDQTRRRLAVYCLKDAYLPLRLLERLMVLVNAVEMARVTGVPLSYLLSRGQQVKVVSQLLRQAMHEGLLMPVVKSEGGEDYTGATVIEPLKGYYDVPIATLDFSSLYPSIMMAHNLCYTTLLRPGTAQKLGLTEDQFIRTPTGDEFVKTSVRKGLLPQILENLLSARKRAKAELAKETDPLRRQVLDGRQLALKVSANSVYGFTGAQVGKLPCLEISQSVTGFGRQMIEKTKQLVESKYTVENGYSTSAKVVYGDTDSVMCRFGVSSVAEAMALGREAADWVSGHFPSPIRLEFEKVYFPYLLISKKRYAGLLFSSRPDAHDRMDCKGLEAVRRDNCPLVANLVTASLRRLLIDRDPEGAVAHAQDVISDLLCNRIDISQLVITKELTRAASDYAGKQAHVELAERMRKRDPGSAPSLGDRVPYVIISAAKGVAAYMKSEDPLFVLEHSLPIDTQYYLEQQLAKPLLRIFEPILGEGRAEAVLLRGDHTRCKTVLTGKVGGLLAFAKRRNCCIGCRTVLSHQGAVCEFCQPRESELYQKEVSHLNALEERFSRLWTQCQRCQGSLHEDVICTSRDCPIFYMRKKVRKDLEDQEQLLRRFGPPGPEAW
# T1: Flag-tagged DDX11 C350S (human) (UniProt Q96FC9)
# T1 sequence: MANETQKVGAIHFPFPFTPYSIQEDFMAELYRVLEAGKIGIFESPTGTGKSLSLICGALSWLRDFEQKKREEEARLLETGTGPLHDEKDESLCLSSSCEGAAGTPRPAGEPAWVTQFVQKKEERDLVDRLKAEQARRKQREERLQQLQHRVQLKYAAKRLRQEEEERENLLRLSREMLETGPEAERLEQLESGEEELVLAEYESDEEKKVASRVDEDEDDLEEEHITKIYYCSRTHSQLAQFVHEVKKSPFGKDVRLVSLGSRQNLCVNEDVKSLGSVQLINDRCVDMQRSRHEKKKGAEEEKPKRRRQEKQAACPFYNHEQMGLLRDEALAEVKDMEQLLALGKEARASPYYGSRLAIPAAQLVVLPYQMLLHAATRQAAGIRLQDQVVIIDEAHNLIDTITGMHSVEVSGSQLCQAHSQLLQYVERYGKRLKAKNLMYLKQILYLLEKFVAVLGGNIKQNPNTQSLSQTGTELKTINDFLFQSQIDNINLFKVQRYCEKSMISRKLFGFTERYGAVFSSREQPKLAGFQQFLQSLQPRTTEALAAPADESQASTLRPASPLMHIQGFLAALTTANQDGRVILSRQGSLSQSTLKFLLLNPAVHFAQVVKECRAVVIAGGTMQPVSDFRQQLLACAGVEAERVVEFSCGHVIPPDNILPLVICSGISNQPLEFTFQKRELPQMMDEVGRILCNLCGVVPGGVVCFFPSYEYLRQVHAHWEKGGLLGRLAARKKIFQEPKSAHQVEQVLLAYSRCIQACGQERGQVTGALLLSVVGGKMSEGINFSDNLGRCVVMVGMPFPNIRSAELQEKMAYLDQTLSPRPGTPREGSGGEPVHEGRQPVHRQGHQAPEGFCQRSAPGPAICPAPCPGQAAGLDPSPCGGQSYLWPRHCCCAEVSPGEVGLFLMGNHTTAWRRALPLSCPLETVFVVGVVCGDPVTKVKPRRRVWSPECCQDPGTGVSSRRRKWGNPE
# T2: Flag-tagged DDX11 R263Q (WABS variant) (human) (UniProt Q96FC9)
# T2 sequence: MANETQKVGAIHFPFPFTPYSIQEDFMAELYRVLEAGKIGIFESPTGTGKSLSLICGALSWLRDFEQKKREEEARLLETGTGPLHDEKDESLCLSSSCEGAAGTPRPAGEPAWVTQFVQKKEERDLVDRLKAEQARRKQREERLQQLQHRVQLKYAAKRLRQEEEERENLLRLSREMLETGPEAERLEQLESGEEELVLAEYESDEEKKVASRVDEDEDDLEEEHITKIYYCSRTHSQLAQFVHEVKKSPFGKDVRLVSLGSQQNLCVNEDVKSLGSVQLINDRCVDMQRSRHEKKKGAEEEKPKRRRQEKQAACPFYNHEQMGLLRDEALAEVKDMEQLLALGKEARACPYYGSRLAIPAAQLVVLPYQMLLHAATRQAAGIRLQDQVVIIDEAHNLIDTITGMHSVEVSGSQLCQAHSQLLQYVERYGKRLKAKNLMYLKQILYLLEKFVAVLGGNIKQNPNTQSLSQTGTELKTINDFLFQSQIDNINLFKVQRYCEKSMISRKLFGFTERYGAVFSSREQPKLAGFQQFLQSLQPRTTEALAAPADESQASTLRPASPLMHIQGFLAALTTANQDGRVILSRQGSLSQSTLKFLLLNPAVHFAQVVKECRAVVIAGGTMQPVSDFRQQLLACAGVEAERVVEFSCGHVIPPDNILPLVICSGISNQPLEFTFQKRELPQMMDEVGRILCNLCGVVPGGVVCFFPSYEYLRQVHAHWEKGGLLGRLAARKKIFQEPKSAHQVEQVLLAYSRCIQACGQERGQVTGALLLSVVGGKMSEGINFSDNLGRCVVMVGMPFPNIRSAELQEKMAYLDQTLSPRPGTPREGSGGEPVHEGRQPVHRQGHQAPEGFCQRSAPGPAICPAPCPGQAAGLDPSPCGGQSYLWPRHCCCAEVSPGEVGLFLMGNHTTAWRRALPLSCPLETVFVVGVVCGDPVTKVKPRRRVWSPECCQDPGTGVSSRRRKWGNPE
# Tests used:
# [1] = target: T1, Flag-tagged DDX11 C350S (human); test: co-IP; Flag-tagged protein captured overnight on ANTI-FLAG M2 Affinity beads from 293T whole cell lysates (150 mM NaCl, 0.1% NP-40, treated with benzonase); beads washed three times with lysis buffer; Western blot
# [2] = target: T2, Flag-tagged DDX11 R263Q (WABS variant) (human); test: as above
binding [1],binding [2],Molecule
binds,binds,untagged POLD1 (from UniProt P28340 1-1107)
binds,binds,"myc-tagged WDHD1 (protein, UniProt O75717 1-1129) MPATRKPMRYGHTEGHTEVCFDDSGSFIVTCGSDGDVRIWEDLDDDDPKFINVGEKAYSCALKSGKLVTAVSNNTIQVHTFPEGVPDGILTRFTTNANHVVFNGDGTKIAAGSSDFLVKIVDVMDSSQQKTFRGHDAPVLSLSFDPKDIFLASASCDGSVRVWQISDQTCAISWPLLQKCNDVINAKSICRLAWQPKSGKLLAIPVEKSVKLYRRESWSHQFDLSDNFISQTLNIVTWSPCGQYLAAGSINGLIIVWNVETKDCMERVKHEKGYAICGLAWHPTCGRISYTDAEGNLGLLENVCDPSGKTSSSKVSSRVEKDYNDLFDGDDMSNAGDFLNDNAVEIPSFSKGIINDDEDDEDLMMASGRPRQRSHILEDDENSVDISMLKTGSSLLKEEEEDGQEGSIHNLPLVTSQRPFYDGPMPTPRQKPFQSGSTPLHLTHRFMVWNSIGIIRCYNDEQDNAIDVEFHDTSIHHATHLSNTLNYTIADLSHEAILLACESTDELASKLHCLHFSSWDSSKEWIIDLPQNEDIEAICLGQGWAAAATSALLLRLFTIGGVQKEVFSLAGPVVSMAGHGEQLFIVYHRGTGFDGDQCLGVQLLELGKKKKQILHGDPLPLTRKSYLAWIGFSAEGTPCYVDSEGIVRMLNRGLGNTWTPICNTREHCKGKSDHYWVVGIHENPQQLRCIPCKGSRFPPTLPRPAVAILSFKLPYCQIATEKGQMEEQFWRSVIFHNHLDYLAKNGYEYEESTKNQATKEQQELLMKMLALSCKLEREFRCVELADLMTQNAVNLAIKYASRSRKLILAQKLSELAVEKAAELTATQVEEEEEEEDFRKKLNAGYSNTATEWSQPRFRNQVEEDAEDSGEADDEEKPEIHKPGQNSFSKSTNSSDVSAKSGAVTFSSQGRVNPFKVSASSKEPAMSMNSARSTNILDNMGKSSKKSTALSRTTNNEKSPIIKPLIPKPKPKQASAASYFQKRNSQTNKTEEVKEENLKNVLSETPAICPPQNTENQRPKTGFQMWLEENRSNILSDNPDFSDEADIIKEGMIRFRVLSTEERKVWANKAKGETASEGTEAKKRKRVVDESDETENQEEKAKENLNLSKKQKPLDFSTNQKLSAFAFKQE"

# — PMC7032568
